Experimental data published in publication doi:10.1101/2024.10.24.620053.
These are yes or no findings as the source states them, for the method shown. Binding seen in cells or lysates may run through a third protein. Some binding calls cover weakened binding; strength is not graded here. For some of these results: Sequences can lack the tags named with a protein.

The chains behind the UniProt entries cited, without tags or fusion partners. Where a name states a change or a piece, a line headed by the entry shows the natural chain unless it says otherwise.
UniProt Q13283, whole entry: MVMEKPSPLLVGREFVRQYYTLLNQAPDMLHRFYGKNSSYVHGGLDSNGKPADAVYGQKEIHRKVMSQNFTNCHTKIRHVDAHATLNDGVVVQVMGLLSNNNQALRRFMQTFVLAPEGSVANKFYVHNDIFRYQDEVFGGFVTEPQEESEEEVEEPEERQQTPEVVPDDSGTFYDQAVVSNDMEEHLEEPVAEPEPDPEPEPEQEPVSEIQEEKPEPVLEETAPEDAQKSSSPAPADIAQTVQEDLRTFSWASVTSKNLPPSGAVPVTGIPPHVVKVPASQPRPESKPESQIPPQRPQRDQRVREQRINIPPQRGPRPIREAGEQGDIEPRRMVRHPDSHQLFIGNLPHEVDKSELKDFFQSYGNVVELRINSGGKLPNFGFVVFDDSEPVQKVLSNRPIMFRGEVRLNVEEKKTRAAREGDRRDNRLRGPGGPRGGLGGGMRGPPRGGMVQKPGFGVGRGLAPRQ
UniProt Q9UHD9, whole entry: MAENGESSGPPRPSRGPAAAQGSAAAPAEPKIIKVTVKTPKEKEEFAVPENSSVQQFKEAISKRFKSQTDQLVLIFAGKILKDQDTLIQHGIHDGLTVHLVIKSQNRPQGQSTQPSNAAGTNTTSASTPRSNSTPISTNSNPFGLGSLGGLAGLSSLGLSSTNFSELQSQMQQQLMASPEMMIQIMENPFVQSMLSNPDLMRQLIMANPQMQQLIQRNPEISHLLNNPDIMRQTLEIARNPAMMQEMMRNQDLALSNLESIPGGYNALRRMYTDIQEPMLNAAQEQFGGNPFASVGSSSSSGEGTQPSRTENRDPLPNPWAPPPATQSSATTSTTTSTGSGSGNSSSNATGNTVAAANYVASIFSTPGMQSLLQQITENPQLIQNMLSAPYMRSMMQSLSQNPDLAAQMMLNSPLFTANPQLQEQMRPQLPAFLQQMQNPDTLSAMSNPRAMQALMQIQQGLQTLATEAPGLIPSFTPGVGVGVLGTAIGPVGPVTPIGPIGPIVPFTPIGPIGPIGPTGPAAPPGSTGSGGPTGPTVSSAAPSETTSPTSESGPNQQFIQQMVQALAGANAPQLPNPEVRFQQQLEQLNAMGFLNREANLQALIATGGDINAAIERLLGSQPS

Key:
Assay in all cases: co-IP
[1] = biological target: G3BP1 (human (endogenous in HeLa)), Q13283; settings: remark: other sources report otherwise
[2] = biological target: G3BP1 (human (endogenous in HeLa)) (UniProt Q13283)
[3] = biological target: T1, PEG10 gag-pol (human (endogenous in HEK293 and HeLa)) (UniProt Q86TG7)
T1 sequence: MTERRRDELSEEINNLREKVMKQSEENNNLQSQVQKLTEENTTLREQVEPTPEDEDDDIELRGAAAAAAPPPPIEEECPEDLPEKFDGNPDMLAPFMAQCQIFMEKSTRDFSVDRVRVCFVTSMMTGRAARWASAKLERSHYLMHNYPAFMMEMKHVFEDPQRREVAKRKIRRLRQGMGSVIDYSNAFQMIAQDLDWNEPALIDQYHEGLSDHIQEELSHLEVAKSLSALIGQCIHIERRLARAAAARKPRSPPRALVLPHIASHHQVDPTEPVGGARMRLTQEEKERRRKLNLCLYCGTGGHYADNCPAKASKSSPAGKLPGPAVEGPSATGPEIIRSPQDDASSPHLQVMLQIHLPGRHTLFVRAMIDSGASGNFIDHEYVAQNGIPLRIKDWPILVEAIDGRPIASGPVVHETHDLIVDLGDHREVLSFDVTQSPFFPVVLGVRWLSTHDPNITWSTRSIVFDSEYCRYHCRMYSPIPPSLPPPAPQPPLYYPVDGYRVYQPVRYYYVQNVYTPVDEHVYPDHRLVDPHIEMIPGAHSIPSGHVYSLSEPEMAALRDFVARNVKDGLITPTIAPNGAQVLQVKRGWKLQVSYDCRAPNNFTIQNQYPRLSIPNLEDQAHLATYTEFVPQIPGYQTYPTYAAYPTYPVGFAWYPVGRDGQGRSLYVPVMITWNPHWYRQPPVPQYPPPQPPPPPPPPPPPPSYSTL

[4] = biological target: UBQLN2 (human (endogenous in HEK293 and HeLa)) (UniProt Q9UHD9)

B1: ATXN2, Q99700 1-1313 (protein)
chain: MRSAAAAPRSPAVATESRRFAAARWPGWRSLQRPARRSGRGGGGAAPGPYPSAAPPPPGPGPPPSRQSSPPSASDCFGSNGNGGGAFRPGSRRLLGLGGPPRPFVVLLLPLASPGAPPAAPTRASPLGARASPPRSGVSLARPAPGCPRPACEPVYGPLTMSLKPQQQQQQQQQQQQQQQQQQQQQQQPPPAAANVRKPGGSGLLASPAAAPSPSSSSVSSSSATAPSSVVAATSGGGRPGLGRGRNSNKGLPQSTISFDGIYANMRMVHILTSVVGSKCEVQVKNGGIYEGVFKTYSPKCDLVLDAAHEKSTESSSGPKREEIMESILFKCSDFVVVQFKDMDSSYAKRDAFTDSAISAKVNGEHKEKDLEPWDAGELTANEELEALENDVSNGWDPNDMFRYNEENYGVVSTYDSSLSSYTVPLERDNSEEFLKREARANQLAEEIESSAQYKARVALENDDRSEEEKYTAVQRNSSEREGHSINTRENKYIPPGQRNREVISWGSGRQNSPRMGQPGSGSMPSRSTSHTSDFNPNSGSDQRVVNGGVPWPSPCPSPSSRPPSRYQSGPNSLPPRAATPTRPPSRPPSRPSRPPSHPSAHGSPAPVSTMPKRMSSEGPPRMSPKAQRHPRNHRVSAGRGSISSGLEFVSHNPPSEAATPPVARTSPSGGTWSSVVSGVPRLSPKTHRPRSPRQNSIGNTPSGPVLASPQAGIIPTEAVAMPIPAASPTPASPASNRAVTPSSEAKDSRLQDQRQNSPAGNKENIKPNETSPSFSKAENKGISPVVSEHRKQIDDLKKFKNDFRLQPSSTSESMDQLLNKNREGEKSRDLIKDKIEPSAKDSFIENSSSNCTSGSSKPNSPSISPSILSNTEHKRGPEVTSQGVQTSSPACKQEKDDKEEKKDAAEQVRKSTLNPNAKEFNPRSFSQPKPSTTPTSPRPQAQPSPSMVGHQQPTPVYTQPVCFAPNMMYPVPVSPGVQPLYPIPMTPMPVNQAKTYRAVPNMPQQRQDQHHQSAMMHPASAAGPPIAATPPAYSTQYVAYSPQQFPNQPLVQHVPHYQSQHPHVYSPVIQGNARMMAPPTHAQPGLVSSSATQYGAHEQTHAMYACPKLPYNKETSPSFYFAISTGSLAQQYAHPNATLHPHTPHPQPSATPTGQQQSQHGGSHPAPSPVQHHQHQAAQALHLASPQQQSAIYHAGLAPTPPSMTPASNTQSPQNSFPAAQQTVFTIHPSHVQPAYTNPPHMAHVPQAHVQSGMVPSHPTAHAPMMLMTTQPPGGPQAALAQSALQPIPVSTTAHFPYMTHPSVQAHHQQQL
With B1 the binding [1] was “binds”.

B2: TIAR (protein, UniProt Q01085 1-375)
chain: MMEDDGQPRTLYVGNLSRDVTEVLILQLFSQIGPCKSCKMITEHTSNDPYCFVEFYEHRDAAAALAAMNGRKILGKEVKVNWATTPSSQKKDTSNHFHVFVGDLSPEITTEDIKSAFAPFGKISDARVVKDMATGKSKGYGFVSFYNKLDAENAIVHMGGQWLGGRQIRTNWATRKPPAPKSTQENNTKQLRFEDVVNQSSPKNCTVYCGGIASGLTDQLMRQTFSPFGQIMEIRVFPEKGYSFVRFSTHESAAHAIVSVNGTTIEGHVVKCYWGKESPDMTKNFQQVDYSQWGQWSQVYGNPQQYGQYMANGWQVPPYGVYGQPWNQQGFGVDQSPSAAWMGGFGAQPPQGQAPPPVIPPPNQAGYGMASYQTQ
B2 was tested, and the binding [2] was “binds”.

B3: HA-RTL8C ΔN (protein, UniProt A6ZKI3)
chain: MPIPFPETFDGDTDRLPEFIVQTGSYMFVDENTFSSDALKVTFLITRLTGPALQWVIPYIKKESPLLNDYRGFLAEMKRVFGWEEDEDF
With B3 the binding [3] was “no binding” and the binding [4] was “no binding”.
